Experimental data reported in US20260325510A1, “COMBINATIONS COMPRISING AN ATR INHIBITOR AND A PARP INHIBITOR AND METHODS OF USE THEREOF” (Jazz Pharmaceuticals Therapeutics, Inc., priority 2023, published 2026).

Assay: Hematology tolerability study
Format: in vivo, female C57BL/6 mice
Details: free ATR inhibitor in combination with free niraparib
Procedure: In order to study the effects of hematology tolerability under different dosing regimens, 8-12 week old, female C57BL/6 mice were used. Body weight was measured qd×5, then biweekly to the end of the study. Animals were weighed and monitored for survival and in-life observations were collected at the time of weight measurement. Mice were organized into appropriate groups consisting of control (empty vehicle) and treatment groups including free niraparib, free niraparib plus Berzosertib, free niraparib plus Elimusertib and a combination of free niraparib and liposomal Compound A. Mice were given orally, or injected intravenously, with the required volume of sample to administer the prescribed dose to the animals based on individual mouse weights on dosing days. Mice were monitored individually to endpoint which was 18 days. Full volume blood was collected by terminal cardiac puncture under isoflurane anesthesia and analyzed for reticulocyte count/number, red blood cell count/number, hemoglobin, hematocrit, platelet count/number, white blood cell count/number, neutrophil count/number, monocyte count/number and lymphocyte count/number.

Question: Which hematological toxicity does the source give for `C[C@@H]1COCCN1c1cc(-c2ccnn2C)c2ccnc(-c3ccn[nH]3)c2n1` [elimusertib] here?
Answer: severe reticulocytopenia and leukopenia
